In article PMC12040169 (PLOS Biology, 2025):
The list shows a part of the results.

What follows are compounds tested on T1, CTL2-GFP (C. trachomatis L2/434/Bu, GFP-expressing). Conditions: bulk GFP, single well; 28.5 h, 10 µM; inhibitor.
T1 construct: L2/434/Bu, GFP-expressing
Set-up: species or system HeLa; Intracellular C. trachomatis growth in HeLa cells, bulk GFP fluorescence relative to DMSO

Row | SMILES | % of control remaining [%]
1 | CCCCOC(=O)c1c(N)n(CCOC)c2nc3ccccc3nc12 [CBK264961] | 125.574
2 | NC1CCN(C(=O)Cn2ccc3ccnc(-c4cccs4)c32)CC1 [CBK284750] | 131.081
3 | Cc1ccc(NC(=O)CCc2cccnc2)c(C)n1 [CBK200386] | 96.0105
4 | O=C(/C=C/c1cccc([N+](=O)[O-])c1)NC(=S)Nc1ccc(-c2nc3ccccc3[nH]2)cc1 [CBK264376] | 83.7792
5 | CCN1CCN(Cc2c[nH]c3ccccc23)CC1 [CBK261540] | 113.955
6 | CCc1nc2ccc(C(=O)N(C)CCN(C)C)cn2c1N(CC)C(=O)NCCc1ccccc1 [CBK147036] | 113.628
7 | NC(=O)C1CCN(C(=O)c2cc3c(=O)n4ccccc4nc3s2)CC1 [CBK296938] | 157.676
8 | O=C(Nc1ncn(CC(=O)N2CCCCCC2)n1)c1cccs1 [CBK304953] | 124.836
9 | O=C1NC=CCC12CCCN(S(=O)(=O)c1ccc(F)cc1)C2 (stereo not shown) [CBK284797] | 131.621
10 | O=C(Nc1cccnc1)C1CCN(S(=O)(=O)c2ccc(Oc3ccccc3)cc2)CC1 [CBK269621] | 120.341
11 | COC(=O)c1ccc(-n2cc(-c3cccc(C(F)(F)F)c3)nn2)cc1 [CBK112936] | 116.057
12 | Cc1cc(S(=O)(=O)Nc2cccc(Br)c2)c(C)cc1Cl [CBK043652] | 117.234
13 | CO[C@@H](C(=O)Nc1cnc(-c2ccc(F)cc2)c(-c2ccsc2)n1)c1ccccc1 [CBK036803] | 103.6
14 | N#CCCCN1CCC2(CC1)CN(C(=O)CO)c1ccccc12 [CBK137007] | 55.9462
15 | Cc1cc(C)n(C)c(=O)c1C(=O)NC(C)Cc1ccccn1 (stereo not shown) [CBK283063] | 125.962
16 | Cc1nn(C(C)CC(=O)NC2CCCOC2)c(C)c1C (stereo not shown) [CBK283133] | 97.0144
17 | Cc1cc(C)n2nc(C(=O)NCCCn3ccnc3C(C)C)nc2n1 [CBK307635] | 145.691
18 | O=C(CC1S/C(=N/N=C/c2ccccc2C(=O)O)NC1=O)Nc1ccccc1 (stereo not shown) [CBK264515] | 130.365
19 | Cc1nc2cccnc2n1CCNC(=O)c1cccc(Cl)c1 [CBK283593] | 138.271
20 | O=C(O)CSc1nnc(-c2ccc3c(c2)OCO3)n1-c1ccccc1 [CBK131690] | 89.4344
21 | COc1ccccc1-c1ccc(CC2(C(=O)NCc3cccc(F)c3)CCOCC2)cc1 [CBK286521] | 83.1498
22 | Cc1cc(NS(=O)(=O)c2ccc(NC(=O)/C=C/c3ccc(C)o3)cc2)nc(C)n1 [CBK265474] | 111.251
23 | CC(=O)N1CCN(c2ccccc2NC(=O)Cc2ccccc2C(=O)O)CC1 [CBK286802] | 135.849
24 | C/C(=N\NC(=N)SC1CC(=O)N(c2ccc(C(=O)O)cc2)C1=O)c1cccs1 (stereo not shown) [CBK262471] | 90.1043
25 | O=C1OCCN1S(=O)(=O)c1ccc(CN2CCCN(Cc3ccc(S(=O)(=O)N4CCOC4=O)cc3)CC2)cc1 [CBK024728] | 149.579

Row | SMILES | % of control remaining [%]
26 | NC1CCC(NC(=O)c2cnc(-c3ccc(Cl)cc3)c(-c3ccco3)c2)CC1 (stereo not shown) [CBK037563] | 191.562
27 | Cc1nn(C)cc1-c1cncn1CCn1nc(C)c(C)c1C [CBK281785] | 123.191
28 | COc1cccc(C(=O)Nc2nc(-c3ccc(S(=O)(=O)N4CCCC4)cc3)cs2)c1 [CBK096257] | 115.466
29 | N/N=C(\CCC(=O)O)c1ccccc1 [CBK261306] | 117.071
30 | O=C(O)c1ccc(S(=O)(=O)c2ccc3c(c2)C(=O)N(c2ccc(Sc4ccc([N+](=O)[O-])cc4)cc2)C3=O)cc1 [CBK262869] | 86.3664
31 | Cc1ccccc1-c1nc(S(=O)(=O)c2ccc(Cl)cc2)c(NCC2CCCO2)o1 (stereo not shown) [CBK267668] | 77.517
32 | O=C(Nc1cccnc1)c1cc2cc(F)ccc2[nH]1 [CBK107272] | 167.104
33 | CCCS(=O)(=O)n1ccn(-c2ccc(Cl)c(Cl)c2)c1=O [CBK106667] | 105.833
34 | COc1ccccc1CCNC(=O)N1CCC(Oc2cccnc2)CC1 [CBK307615] | 110.26
35 | COc1ccc(CCNc2ncnc3c2cnn3-c2ccc(Cl)cc2)cc1OC [CBK265804] | 99.8763
36 | CCCC(=O)Nc1ccc(OCCOC(C)(C)C)c(C(C)=O)c1 [CBK305691] | 122.406
37 | CCOC(=O)c1cccc(-c2cc3ccccc3o2)n1 [CBK149243] | 136.581
38 | O=C(O)CCc1ccc(-c2ccc(F)cc2)n1CCc1ccccc1 [CBK265936] | 102.126
39 | c1ccc(CSc2ccc3nnc(-c4ccncc4)n3n2)cc1 [CBK287625] | 141.489
40 | COc1cccc(NC(=O)c2ccc(N(C)Cc3ccccc3)c([N+](=O)[O-])c2)c1 [CBK267827] | 78.6251
41 | Sc1nnc(COc2ccc(Cl)cc2Cl)n1Cc1ccccc1 [CBK263138] | 98.2532
42 | CC(C)NC(=O)CN1CCN(c2ccc(C#N)cc2Cl)CC1 [CBK305470] | 86.4446
43 | Nc1ncc(-c2ccncc2)nc1-c1ccc(C=O)cc1 [CBK064102] | 119.308
44 | Cc1ccc(C(=O)NCc2nc3ccccc3[nH]2)c(N2CCOCC2)n1 [CBK106200] | 117.555
45 | COCCNC(=O)C1CCN(c2nc3c(-c4ccccc4F)csc3c(=O)[nH]2)CC1 [CBK215434] | 130.402
46 | O=C(O)c1ccc(COc2ccc(/C=C3\SC(=S)N(Cc4cccnc4)C3=O)cc2Cl)cc1 [CBK264672] | 100
47 | CN1C(=O)C2(CC(=O)N(Cc3ccccc3)C2=O)c2cc(F)ccc21 (stereo not shown) [CBK075268] | 105.141
48 | Cc1cc(C)c(S(=O)(=O)NC(C)C)c(C)c1-n1cnnn1 [CBK270197] | 105.641
49 | Cc1cc2nc(/C(C#N)=C/c3ccncc3)[nH]c2cc1C [CBK268745] | 166.273

Some of the entries above in a different format:
Sc1nnc(COc2ccc(Cl)cc2Cl)n1Cc1ccccc1 [CBK263138]
  % of control remaining [%]: 98.2532
CC(C)NC(=O)CN1CCN(c2ccc(C#N)cc2Cl)CC1 [CBK305470]
  % of control remaining [%]: 86.4446
Nc1ncc(-c2ccncc2)nc1-c1ccc(C=O)cc1 [CBK064102]
  % of control remaining [%]: 119.308
